Taken from: PubChem BioAssay AID743121 (NCATS, 2013)
Purpose: 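Genes whose silencing strengthens cell killing by camptothecin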 (primary screen). System: MDA-MB-231 cells, a human breast cancer line. Knock-down reagent: single siRNA against human genes, 20 nM siRNA (0.8 pmol per well). Duration: 120 h (drug added 48 h after transfection, read 72 h later). Conditions: camptothecin 20 nM (about EC30) for 72 h; vehicle 0.1% DMSO in parallel plates. Measurement: 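Cell viability by ATP luminescence (CellTiter-Glo) as % of non-targeting siRNA wells, and the log2 ratio of viability without drug over viability with camptothecin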. Scale: log2 vehicle/camptothecin viability: higher = stronger sensitisation to camptothecin. Call rule: 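Active genes have an RSA gene-level p-value below 0.001, computed from the ratios of their separate siRNAs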.
This is an unselected part of about 26,000 reagents. 167 of all reagents (0.63%) were called active. 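Calls are per gene from RSA p-values that are not deposited; an individual active-marked siRNA can sensitise only weakly.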 Entries without a mark were called inactive. Further read-outs or replicates are left out here.

gene symbol,PubChem SID,log2 vehicle/camptothecin viability
TNFRSF21,SID164463148,-0.457
TNFRSF21,SID164463153,-0.647
TNFRSF21,SID164463154,-0.328
CXCR4,SID164395665,-0.397
CXCR4,SID164395667,-0.397
CXCR4,SID164395668,-0.292
CXCR4,SID164395669,0.154
ARSK,SID164577158,0.185
ARSK,SID164577159,-0.00908
ARSK,SID164577160,-0.0671
ARSK,SID164577162,-0.349
GJA1,SID164366568,-0.168
GJA1,SID164366569,0.158
GJA1,SID164366571,0.32
NIPA1,SID164566780,-0.0609
NIPA1,SID164566785,-0.497
NIPA1,SID164566786,-0.607
NIPA1,SID164566787,-0.126
HRH1,SID164369998,-0.499
HRH1,SID164369999,0.0673
HRH1,SID164370001,-0.104
HRH1,SID164370002,-0.0369
SULF1,SID164446443,0.114
SULF1,SID164446448,0.199
SULF1,SID164446449,0.195
SERPINB1,SID164363080,-0.212
SERPINB1,SID164363081,-0.578
SERPINB1,SID164363082,-0.103

Sorted by “log2 vehicle/camptothecin viability” (descending): some entries from above
gene symbol,PubChem SID,log2 vehicle/camptothecin viability
HRH1,SID164369999,0.0673
HRH1,SID164370001,-0.104
